The structures appear in SMILES notation. The list shows a part of the results. Single values are uncertain, as repeats are few or missing.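 The apoptosis fraction was the count of cleaved-PARP antibody-stained nuclei relative to all DNA-stained nuclei, imaged in 1,536-well plates. Screening doses were set so most cells survived, and baseline and induced cleaved-PARP levels vary greatly across cell lines.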

Holding throughout (test): cleaved PARP positive nuclei fraction relative to DMSO control; melanoma cells; higher = more apoptosis
Common to all, as to details: library dose: low library concentration; 72 h

For assay [1], the system named is MZ2-MEL.
Assay [2] has as its system MeWo.
In assay [3] the test system is RPMI7951.
The test system of assay [4] is RVH-421.
Assay [5] concerns SkMel28.
Assay [6] concerns SkMel2.
For assay [7], the system named is SkMel30.
Assay [8] has as its system SkMel5.
The test system of assay [9] is UACC257.
Assay [10] deals with UACC62.
The subject of assay [11] is WM115.
For assay [12], the system named is WM1716.
Assay [13] deals with WM1745.
For assay [14], the system named is WM3526.
The subject of assay [15] is WM3619.
For assay [16], the system named is WM451Lu.

For `O=C(O)[C@@H]1[O][Sb](=[O])([O][Sb]2(=[O])[O][C@H]([C@H](O)CO)[C@H](O)[C@H](C(=O)O)[O]2)[O][C@H]([C@H](O)CO)[C@@H]1O` (some centres undefined) [stibogluconate] + Oc1cc(-c2nc(-c3ccccc3)[nH]c2-c2ccncc2)ccc1Cl [L779450] (first compound 2 µM, partner dose 0.2 µM), the “cleaved PARP positive nuclei fraction” value in [1] is 54.7%; in [2], 113%; in [3] it was 81.4%; in [4] it was 120%; in [5], 506%; in assay [6], 155%. The “cleaved PARP positive nuclei fraction” value in [7] came out at 87.3%; in [8] it was 73.1%; in [9], 193%; in assay [10] it was 530%; in assay [11] it was 141%; in assay [12], 84.8%. Moreover, the “cleaved PARP positive nuclei fraction” value in assay [13] is 101%; in assay [14] it was 100%; in [15], 96.6%; in assay [16], 267%.

For `Cn1c(=O)n(-c2ccc(C(C)(C)C#N)cc2)c2c3cc(-c4cnc5ccccc5c4)ccc3ncc21` + Cc1cc([N+](=O)[O-])ccc1NS(=O)(=O)c1cc(Cl)ccc1Cl [FH535] (first compound 0.004 µM, partner dose 1 µM), the “cleaved PARP positive nuclei fraction” value was 69.2% in assay [1]; 32% in assay [2]; 71.1% in assay [3]; 233% in [4]; 397% in assay [5]; 146% in [6]. The “cleaved PARP positive nuclei fraction” value in assay [7] was 94.8%; in assay [8] it was 88.9%; in assay [9] it was 222%; in [10] it was 145%; in [11] it was 134%; in assay [12] it was 176%. Further, the “cleaved PARP positive nuclei fraction” value turned out to be 83.7% in [13], 187% in assay [14], 115% in [15] and 236% in [16].

For `CS(=O)(=O)CCNCc1ccc(-c2ccc3ncnc(Nc4ccc(OCc5cccc(F)c5)c(Cl)c4)c3c2)o1` [lapatinib] + COc1cc(N2CCC(N3CCN(C)CC3)CC2)ccc1Nc1ncc(Cl)c(Nc2ccccc2S(=O)(=O)C(C)C)n1 [NVP-TAE684] (first compound 0.8 µM, partner dose 0.08 µM), the “cleaved PARP positive nuclei fraction” value stood at 162% in assay [1]; 79.8% in assay [2]; 39.8% in assay [3]; 137% in assay [4]; 141% in [5]; 31.8% in assay [6]. Also, the “cleaved PARP positive nuclei fraction” value in [7] is 77.4%; in assay [8] it was 89.6%; in assay [9] it was 345%; in assay [10], 118%; in [11] it was 68.5%; in [12], 29.8%. Also, the “cleaved PARP positive nuclei fraction” value in assay [13] was determined as 111%; in [14] it was 100%; in assay [15], 99.9%; in assay [16] it was 93.8%.

As for `O=C(O)c1ccc2c(c1)nc(Nc1cccc(Cl)c1)c1ccncc12` + N#Cc1c(O)c2c(-c3ccc(-c4ccccc4O)cc3)csc2[nH]c1=O [A769662] (first compound 0.4 µM, partner dose 2 µM), the “cleaved PARP positive nuclei fraction” value in assay [1] was 194%; in assay [2], 43.2%; in [3] it was 138%; in assay [4] it was 62.2%; in assay [5], 49.6%; in assay [6] it was 126%. Besides, the “cleaved PARP positive nuclei fraction” value in assay [7] is 132%; in assay [8], 74.9%; in [9] it was 104%; in assay [10] it was 69.4%; in assay [11], 40.9%; in [12], 355%. For the same compound, the “cleaved PARP positive nuclei fraction” value was 97.2% in [13], 94.5% in assay [14], 81.6% in assay [15] and 37.3% in assay [16].

Take `CN1CCN(c2ccc3nc(-c4c(N)c5c(F)cccc5[nH]c4=O)[nH]c3c2)CC1` [Dovitinib] + C=CCn1c(=O)c2cnc(Nc3ccc(N4CCN(C)CC4)cc3)nc2n1-c1cccc(C(C)(C)O)n1 [MK1775] (first compound 0.1 µM, partner dose 0.02 µM): the “cleaved PARP positive nuclei fraction” value was 62.3% in assay [1]; 120% in assay [2]; 27.6% in assay [3]; 101% in assay [4]; 40.4% in assay [5]; 74.2% in assay [6]. For the same compound, the “cleaved PARP positive nuclei fraction” value in [7] turned out to be 67.8%; in assay [8] it was 77.9%; in [9], 63.2%; in [10], 120%; in assay [11] it was 209%; in [12], 104%. Besides, the “cleaved PARP positive nuclei fraction” value came to 134% in assay [13], 65.3% in [14], 122% in [15] and 174% in assay [16].

For `C[C@@H](Oc1cc(-c2cnn(C3CCNCC3)c2)cnc1N)c1c(Cl)ccc(F)c1Cl` [Crizotinib] + Cn1cncc1[C@@](N)(c1ccc(Cl)cc1)c1ccc2c(c1)c(-c1cccc(Cl)c1)cc(=O)n2C [tipifarnib] (first compound 0.2 µM, partner dose 0.01 µM), the “cleaved PARP positive nuclei fraction” value was 78.8% in [1]; 34.8% in assay [2]; 47.9% in [3]; 75.4% in assay [4]; 45.9% in [5]; 114% in [6]. Also, the “cleaved PARP positive nuclei fraction” value worked out at 69.4% in assay [7]; 37.8% in assay [8]; 149% in [9]; 142% in assay [10]; 166% in [11]; 125% in assay [12]. Besides, the “cleaved PARP positive nuclei fraction” value in assay [13] was determined as 110%; in [14], 73.9%; in assay [15], 98%; in [16], 67.5%.

`C[C@@H](Oc1cc(-c2cnn(C3CCNCC3)c2)cnc1N)c1c(Cl)ccc(F)c1Cl` [Crizotinib] + CCc1ccc(CCOc2ccc(CC3SC(=O)NC3=O)cc2)nc1 [pioglitazone] (first compound 0.2 µM, partner dose 2 µM): the “cleaved PARP positive nuclei fraction” value was found to be 89.6% in assay [1]; 26.8% in assay [2]; 107% in assay [3]; 87.9% in assay [4]; 117% in assay [5]; 96% in assay [6]. Also, the “cleaved PARP positive nuclei fraction” value in assay [7] worked out at 81%; in assay [8] it was 77.8%; in assay [9] it was 186%; in assay [10], 62.4%; in assay [11], 74.4%; in [12], 99.9%. Besides, the “cleaved PARP positive nuclei fraction” value in assay [13] stood at 86.5%; in assay [14], 150%; in [15], 86.2%; in assay [16], 363%.

`CNC(=O)c1cc(Oc2ccc(NC(=O)Nc3ccc(Cl)c(C(F)(F)F)c3)cc2)ccn1` [sorafenib] + N#Cc1c(O)c2c(-c3ccc(-c4ccccc4O)cc3)csc2[nH]c1=O [A769662] (first compound 0.4 µM, partner dose 2 µM): the “cleaved PARP positive nuclei fraction” value worked out at 201% in assay [1]; 115% in assay [2]; 72.1% in [3]; 60.6% in assay [4]; 191% in [5]; 40.6% in assay [6]. Moreover, the “cleaved PARP positive nuclei fraction” value was 167% in assay [7]; 78.4% in [8]; 132% in [9]; 194% in [10]; 114% in assay [11]; 64.3% in assay [12]. In addition, the “cleaved PARP positive nuclei fraction” value in assay [13] amounted to 99.6%; in assay [14] it was 58.4%; in assay [15] it was 73.5%; in [16] it was 68.9%.

For `Cn1c(=O)n(-c2ccc(C(C)(C)C#N)cc2)c2c3cc(-c4cnc5ccccc5c4)ccc3ncc21` + O=C(CCCCCCC(=O)Nc1ccccc1)NO [vorinostat] (first compound 0.004 µM, partner dose 0.08 µM), the “cleaved PARP positive nuclei fraction” value was found to be 52.9% in [1]; 90.8% in assay [2]; 100% in assay [3]; 24.8% in assay [4]; 40.4% in assay [5]; 100% in assay [6]. Also, the “cleaved PARP positive nuclei fraction” value is 63.4% in assay [7]; 73.7% in assay [8]; 67.1% in [9]; 180% in assay [10]; 74.8% in assay [11]; 46% in assay [12]. For the same compound, the “cleaved PARP positive nuclei fraction” value in assay [13] is 84%; in [14] it was 72.1%; in assay [15] it was 95.9%; in assay [16] it was 95.4%.
